This note sets out measurements from the supplement of paper PMC10849652.

The chains behind the UniProt entries cited, without tags or fusion partners. Where a name states a change or a piece, a line headed by the entry shows the natural chain unless it says otherwise.
UniProt Q9Y5B9, whole entry, looked up: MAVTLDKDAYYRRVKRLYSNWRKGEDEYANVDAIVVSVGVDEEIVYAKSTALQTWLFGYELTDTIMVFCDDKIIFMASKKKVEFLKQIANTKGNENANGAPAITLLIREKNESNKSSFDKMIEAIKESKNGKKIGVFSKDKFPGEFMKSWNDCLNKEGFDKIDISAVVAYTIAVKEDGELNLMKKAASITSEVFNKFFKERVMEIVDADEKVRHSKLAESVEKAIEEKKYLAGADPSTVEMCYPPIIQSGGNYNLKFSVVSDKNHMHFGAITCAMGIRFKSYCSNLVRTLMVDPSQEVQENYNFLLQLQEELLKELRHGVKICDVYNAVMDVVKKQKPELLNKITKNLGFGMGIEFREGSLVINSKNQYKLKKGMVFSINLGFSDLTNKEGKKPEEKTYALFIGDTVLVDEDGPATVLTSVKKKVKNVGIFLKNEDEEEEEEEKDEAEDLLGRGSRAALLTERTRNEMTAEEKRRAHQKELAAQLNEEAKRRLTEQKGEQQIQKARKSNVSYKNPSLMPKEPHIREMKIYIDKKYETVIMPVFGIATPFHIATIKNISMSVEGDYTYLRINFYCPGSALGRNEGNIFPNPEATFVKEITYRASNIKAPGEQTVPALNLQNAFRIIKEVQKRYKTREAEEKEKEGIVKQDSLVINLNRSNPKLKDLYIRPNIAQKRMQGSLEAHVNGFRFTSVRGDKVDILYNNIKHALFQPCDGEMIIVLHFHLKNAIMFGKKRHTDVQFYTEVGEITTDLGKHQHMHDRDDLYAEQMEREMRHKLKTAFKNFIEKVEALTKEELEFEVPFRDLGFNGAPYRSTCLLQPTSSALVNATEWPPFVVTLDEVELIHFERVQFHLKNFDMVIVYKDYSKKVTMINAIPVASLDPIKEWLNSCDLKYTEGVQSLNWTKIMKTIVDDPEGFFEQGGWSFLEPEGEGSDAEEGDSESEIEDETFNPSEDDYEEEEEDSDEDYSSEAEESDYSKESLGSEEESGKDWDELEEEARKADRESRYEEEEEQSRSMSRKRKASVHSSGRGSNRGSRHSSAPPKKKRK
UniProt Q8IWZ8: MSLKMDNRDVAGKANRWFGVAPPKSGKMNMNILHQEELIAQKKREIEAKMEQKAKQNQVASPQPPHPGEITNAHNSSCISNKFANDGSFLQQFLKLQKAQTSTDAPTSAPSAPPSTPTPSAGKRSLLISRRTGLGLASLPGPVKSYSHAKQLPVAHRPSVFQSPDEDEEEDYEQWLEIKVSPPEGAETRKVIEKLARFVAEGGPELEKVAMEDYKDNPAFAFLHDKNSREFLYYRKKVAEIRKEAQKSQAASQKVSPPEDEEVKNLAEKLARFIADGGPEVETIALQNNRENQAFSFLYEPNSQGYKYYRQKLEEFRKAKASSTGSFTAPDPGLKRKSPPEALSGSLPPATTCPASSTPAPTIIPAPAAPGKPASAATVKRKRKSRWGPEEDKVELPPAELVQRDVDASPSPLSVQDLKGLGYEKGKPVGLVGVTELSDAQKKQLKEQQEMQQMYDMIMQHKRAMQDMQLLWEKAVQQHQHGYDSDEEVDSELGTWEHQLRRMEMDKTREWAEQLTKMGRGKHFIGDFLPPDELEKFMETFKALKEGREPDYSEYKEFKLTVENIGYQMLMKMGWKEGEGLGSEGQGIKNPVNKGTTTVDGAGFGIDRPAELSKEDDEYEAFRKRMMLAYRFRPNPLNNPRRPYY
UniProt Q16514: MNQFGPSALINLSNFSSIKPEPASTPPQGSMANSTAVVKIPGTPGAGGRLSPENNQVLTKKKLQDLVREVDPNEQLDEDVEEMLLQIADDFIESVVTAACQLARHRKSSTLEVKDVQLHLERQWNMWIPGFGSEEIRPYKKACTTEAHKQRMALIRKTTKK
UniProt Q15750: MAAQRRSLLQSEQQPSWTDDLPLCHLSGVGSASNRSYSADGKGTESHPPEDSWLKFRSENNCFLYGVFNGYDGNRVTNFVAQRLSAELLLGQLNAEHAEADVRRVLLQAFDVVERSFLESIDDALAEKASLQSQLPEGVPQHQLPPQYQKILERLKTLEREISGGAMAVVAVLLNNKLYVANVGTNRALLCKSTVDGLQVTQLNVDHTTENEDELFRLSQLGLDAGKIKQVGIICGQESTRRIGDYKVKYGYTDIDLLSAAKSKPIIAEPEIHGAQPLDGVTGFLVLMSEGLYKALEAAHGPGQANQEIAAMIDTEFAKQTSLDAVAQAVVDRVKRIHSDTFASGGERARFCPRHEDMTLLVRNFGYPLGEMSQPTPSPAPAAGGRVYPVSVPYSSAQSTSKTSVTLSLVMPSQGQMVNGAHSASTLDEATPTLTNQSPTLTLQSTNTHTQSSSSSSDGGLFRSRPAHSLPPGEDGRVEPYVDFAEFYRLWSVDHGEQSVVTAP
UniProt O15056: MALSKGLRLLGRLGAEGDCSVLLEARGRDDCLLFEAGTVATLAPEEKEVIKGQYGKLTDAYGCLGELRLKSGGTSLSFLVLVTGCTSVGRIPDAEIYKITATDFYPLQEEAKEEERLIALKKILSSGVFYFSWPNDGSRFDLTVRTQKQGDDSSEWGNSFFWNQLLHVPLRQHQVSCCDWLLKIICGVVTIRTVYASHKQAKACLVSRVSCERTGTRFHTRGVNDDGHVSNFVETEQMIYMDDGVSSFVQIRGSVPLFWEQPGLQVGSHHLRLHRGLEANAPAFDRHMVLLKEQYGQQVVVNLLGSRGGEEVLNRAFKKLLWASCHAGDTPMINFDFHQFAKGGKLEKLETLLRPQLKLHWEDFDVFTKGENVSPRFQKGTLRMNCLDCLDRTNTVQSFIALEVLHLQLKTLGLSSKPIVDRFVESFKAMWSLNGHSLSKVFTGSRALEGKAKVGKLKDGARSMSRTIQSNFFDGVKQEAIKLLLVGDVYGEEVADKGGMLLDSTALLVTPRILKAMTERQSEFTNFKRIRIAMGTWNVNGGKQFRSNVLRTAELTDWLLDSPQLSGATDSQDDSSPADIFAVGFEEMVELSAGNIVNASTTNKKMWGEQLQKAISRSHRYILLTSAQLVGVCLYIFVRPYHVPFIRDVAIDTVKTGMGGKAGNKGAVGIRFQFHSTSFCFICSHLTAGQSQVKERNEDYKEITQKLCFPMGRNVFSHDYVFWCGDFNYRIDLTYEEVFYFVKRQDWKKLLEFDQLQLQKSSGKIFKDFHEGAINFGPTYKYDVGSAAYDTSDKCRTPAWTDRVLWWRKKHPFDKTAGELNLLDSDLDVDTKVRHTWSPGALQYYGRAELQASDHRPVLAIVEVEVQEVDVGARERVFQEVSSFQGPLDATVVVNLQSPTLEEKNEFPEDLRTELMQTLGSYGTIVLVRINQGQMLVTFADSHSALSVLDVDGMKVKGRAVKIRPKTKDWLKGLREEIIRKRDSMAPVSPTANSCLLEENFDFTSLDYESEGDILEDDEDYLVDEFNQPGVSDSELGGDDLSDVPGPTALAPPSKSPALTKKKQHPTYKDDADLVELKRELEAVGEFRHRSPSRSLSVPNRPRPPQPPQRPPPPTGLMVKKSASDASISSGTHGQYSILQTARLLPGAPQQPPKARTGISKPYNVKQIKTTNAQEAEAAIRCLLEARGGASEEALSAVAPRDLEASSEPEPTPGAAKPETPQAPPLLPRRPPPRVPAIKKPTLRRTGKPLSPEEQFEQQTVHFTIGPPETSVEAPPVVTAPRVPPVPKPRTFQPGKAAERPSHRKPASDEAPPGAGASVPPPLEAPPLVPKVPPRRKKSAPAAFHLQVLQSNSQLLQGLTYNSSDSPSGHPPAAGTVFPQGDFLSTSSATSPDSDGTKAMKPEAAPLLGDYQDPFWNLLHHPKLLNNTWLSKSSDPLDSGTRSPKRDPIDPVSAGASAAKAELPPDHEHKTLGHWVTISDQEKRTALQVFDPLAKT
UniProt Q8NBJ7: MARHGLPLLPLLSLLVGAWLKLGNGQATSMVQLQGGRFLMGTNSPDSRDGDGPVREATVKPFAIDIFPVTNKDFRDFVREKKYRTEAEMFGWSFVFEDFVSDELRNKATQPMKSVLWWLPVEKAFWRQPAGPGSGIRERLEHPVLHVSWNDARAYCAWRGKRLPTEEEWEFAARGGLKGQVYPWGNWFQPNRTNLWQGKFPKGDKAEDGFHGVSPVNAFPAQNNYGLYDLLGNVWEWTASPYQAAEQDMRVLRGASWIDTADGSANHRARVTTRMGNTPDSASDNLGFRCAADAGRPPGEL
UniProt Q13188: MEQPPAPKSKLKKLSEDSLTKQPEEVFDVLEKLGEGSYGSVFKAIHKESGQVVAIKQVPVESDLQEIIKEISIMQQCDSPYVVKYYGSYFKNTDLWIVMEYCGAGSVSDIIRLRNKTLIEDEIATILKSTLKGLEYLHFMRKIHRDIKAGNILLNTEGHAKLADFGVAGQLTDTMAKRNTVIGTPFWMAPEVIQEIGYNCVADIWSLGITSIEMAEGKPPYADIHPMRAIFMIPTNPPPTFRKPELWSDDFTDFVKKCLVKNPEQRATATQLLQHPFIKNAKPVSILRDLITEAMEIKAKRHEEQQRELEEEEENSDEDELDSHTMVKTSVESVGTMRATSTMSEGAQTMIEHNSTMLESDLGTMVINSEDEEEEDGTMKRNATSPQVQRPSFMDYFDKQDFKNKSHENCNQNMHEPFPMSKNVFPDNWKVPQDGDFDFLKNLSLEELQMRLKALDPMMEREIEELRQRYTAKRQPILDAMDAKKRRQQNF
UniProt Q9ULQ0: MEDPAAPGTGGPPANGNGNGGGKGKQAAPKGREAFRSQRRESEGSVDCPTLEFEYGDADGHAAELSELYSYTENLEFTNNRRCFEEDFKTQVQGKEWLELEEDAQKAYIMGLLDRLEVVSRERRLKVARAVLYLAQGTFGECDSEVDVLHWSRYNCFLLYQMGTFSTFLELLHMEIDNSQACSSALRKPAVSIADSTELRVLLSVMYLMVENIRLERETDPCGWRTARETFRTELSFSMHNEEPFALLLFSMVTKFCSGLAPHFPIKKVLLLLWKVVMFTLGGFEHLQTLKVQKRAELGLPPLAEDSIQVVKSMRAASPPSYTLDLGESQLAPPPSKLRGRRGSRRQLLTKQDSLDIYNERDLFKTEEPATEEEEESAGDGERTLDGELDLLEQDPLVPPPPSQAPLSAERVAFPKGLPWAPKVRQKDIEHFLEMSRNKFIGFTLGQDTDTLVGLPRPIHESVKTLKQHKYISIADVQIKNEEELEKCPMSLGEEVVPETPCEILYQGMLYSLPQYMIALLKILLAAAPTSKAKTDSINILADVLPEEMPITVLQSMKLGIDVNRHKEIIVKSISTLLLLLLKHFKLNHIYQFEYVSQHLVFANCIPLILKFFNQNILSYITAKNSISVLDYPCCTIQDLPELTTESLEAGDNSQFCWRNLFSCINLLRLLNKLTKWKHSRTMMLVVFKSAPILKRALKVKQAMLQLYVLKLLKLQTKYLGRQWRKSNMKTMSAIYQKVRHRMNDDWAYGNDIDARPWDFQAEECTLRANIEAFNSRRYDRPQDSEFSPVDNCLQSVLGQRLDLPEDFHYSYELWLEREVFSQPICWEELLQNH
UniProt Q93045: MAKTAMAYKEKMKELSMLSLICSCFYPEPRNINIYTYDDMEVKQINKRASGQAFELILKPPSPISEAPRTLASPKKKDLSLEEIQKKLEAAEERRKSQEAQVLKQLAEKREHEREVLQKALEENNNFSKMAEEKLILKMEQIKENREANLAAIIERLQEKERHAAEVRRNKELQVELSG
UniProt O00186: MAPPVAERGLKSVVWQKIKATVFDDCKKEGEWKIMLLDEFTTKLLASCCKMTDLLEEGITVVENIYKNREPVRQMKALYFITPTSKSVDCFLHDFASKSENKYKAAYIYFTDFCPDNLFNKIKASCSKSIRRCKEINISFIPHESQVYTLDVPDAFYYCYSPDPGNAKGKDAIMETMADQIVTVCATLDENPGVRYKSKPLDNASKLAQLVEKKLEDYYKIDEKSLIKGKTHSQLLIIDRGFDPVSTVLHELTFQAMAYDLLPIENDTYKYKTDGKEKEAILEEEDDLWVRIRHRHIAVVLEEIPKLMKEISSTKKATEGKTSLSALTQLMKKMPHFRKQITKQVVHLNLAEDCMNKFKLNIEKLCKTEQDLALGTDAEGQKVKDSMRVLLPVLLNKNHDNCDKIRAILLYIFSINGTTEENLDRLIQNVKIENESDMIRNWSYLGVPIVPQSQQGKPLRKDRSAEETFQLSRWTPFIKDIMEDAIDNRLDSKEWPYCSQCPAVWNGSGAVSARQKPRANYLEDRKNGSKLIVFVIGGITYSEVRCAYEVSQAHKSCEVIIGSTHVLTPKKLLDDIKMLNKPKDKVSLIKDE
UniProt Q9Y3F4: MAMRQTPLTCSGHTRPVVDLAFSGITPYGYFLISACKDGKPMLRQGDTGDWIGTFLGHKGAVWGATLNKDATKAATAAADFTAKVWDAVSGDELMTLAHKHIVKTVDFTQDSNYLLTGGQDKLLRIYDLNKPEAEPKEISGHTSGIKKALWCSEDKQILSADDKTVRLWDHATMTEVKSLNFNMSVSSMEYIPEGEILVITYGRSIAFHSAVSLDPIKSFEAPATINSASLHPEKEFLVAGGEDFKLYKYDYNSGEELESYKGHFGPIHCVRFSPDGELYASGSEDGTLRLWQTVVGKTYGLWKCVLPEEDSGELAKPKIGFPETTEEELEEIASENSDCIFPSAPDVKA

This is one part of the list.

Compound in the first test: Cc1ccc(NC(=O)c2ccc(CN3CC[C@H](N(C)C)C3)c(C(F)(F)F)c2)cc1Nc1nccc(-c2cncnc2)n1 [bafetinib]
The test is described as follows: log2 fold change, soluble protein after heating vs DMSO (PISA); higher = thermal stabilisation; K562 lysate, 10 uM; active = over 0.2 and 3.5 SD of the protein, either way, in both replicates (recomputed). An outline of the steps: (§1)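 To prepare the extract, K562 pellets were dounce-homogenised in PBS pH 7.4 with 1 mM MgCl2, giving crude material at 1 mg/mL protein. This was treated with 10 μM compound for 30 min, then heated in aliquots for 3 min over 48°C-58°C before pooling and addition of NP-40 to 0.5% at 4°C. Centrifugation at 21,000xg for 90 min left soluble protein in the supernatant, which TMTpro 16plex LC-MS/MS quantified with equalised channel sums. Results are log-two fold changes in thermal stability compared with solvent controls, from duplicates.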
With SYNE1 (UniProt Q8NF91), the log2 fold change is inactive: 0.066.

As for TACO1 (UniProt Q9BSH4), the log2 fold change is inactive: -0.054.

For STRN3 (UniProt Q13033), the log2 fold change was inactive: 0.088.

As to STXBP5 (UniProt Q5T5C0), the log2 fold change is inactive: -0.013.

With SUPT16H (UniProt Q9Y5B9), the log2 fold change was inactive: 0.006.

Take SYAP1 (UniProt Q96A49): the log2 fold change is inactive: 0.006.

With TADA1 (UniProt Q96BN2), the log2 fold change is inactive: -0.002.

Turning to STRN4 isoform 3 (UniProt Q9NRL3), the log2 fold change was inactive: -0.028.

With STMN1 (UniProt P16949), the log2 fold change was inactive: 0.018.

For TAF4B (UniProt Q92750), the log2 fold change is inactive: -0.104.

Turning to SYP (UniProt P08247), the log2 fold change is inactive: -0.039.

In the case of SUGP1 (UniProt Q8IWZ8), the log2 fold change was inactive: 0.01.

As for TACC3 (UniProt Q9Y6A5), the log2 fold change was inactive: 0.007.

On to TAF12 (UniProt Q16514), for which the log2 fold change was inactive: 0.036.

Consider TAB1 (UniProt Q15750), for which the log2 fold change is inactive: -0.044.

Turning to STK26 (UniProt Q9P289), the log2 fold change was inactive: -0.015.

For the target STRIP1 (UniProt Q5VSL9), the log2 fold change is inactive: -0.026.

As for SYNJ2 (UniProt O15056), the log2 fold change is inactive: -0.116.

For the target SUMF2 (UniProt Q8NBJ7), the log2 fold change is inactive: 0.053.

For the target STX18 (UniProt Q9P2W9), the log2 fold change was inactive: -0.072.

STK3 isoform 2 (UniProt Q13188): the log2 fold change is inactive: 0.001.

Take STK39 (UniProt Q9UEW8): the log2 fold change is inactive: -0.03.

With SVIP (UniProt Q8NHG7), the log2 fold change is inactive: -0.008.

Consider SYNCRIP (UniProt O60506), for which the log2 fold change is inactive: -0.008.

For the target TAF2 (UniProt Q6P1X5), the log2 fold change is inactive: -0.028.

Regarding TADA3 (UniProt O75528), the log2 fold change was inactive: -0.051.

For STRIP2 (UniProt Q9ULQ0), the log2 fold change was inactive: -0.025.

On to SUMO1 (UniProt P63165), for which the log2 fold change is inactive: -0.004.

Regarding SUB1 (UniProt P53999), the log2 fold change was inactive: 0.001.

Take SYPL1 (UniProt Q16563): the log2 fold change was inactive: -0.034.

On to TAF1B (UniProt Q53T94), for which the log2 fold change is inactive: -0.004.

With SYNRG (UniProt Q9UMZ2), the log2 fold change is inactive: -0.032.

Regarding STX5 (UniProt Q13190), the log2 fold change is inactive: -0.116.

On to STMN2 isoform 2 (UniProt Q93045), for which the log2 fold change was inactive: 0.058.

With STXBP3 (UniProt O00186), the log2 fold change was inactive: -0.047.

Take STRAP isoform 2 (UniProt Q9Y3F4): the log2 fold change was inactive: 0.05.

For SUCLA2 (UniProt Q9P2R7), the log2 fold change was inactive: -0.04.

Compound in the next test: Cc1cccc(CC(=O)N2CCc3c2ccc(-c2cn(C)c4ncnc(N)c24)c3F)n1
The description is as above. An outline of the steps: as §1
Regarding SYNE1 (UniProt Q8NF91), the log2 fold change was inactive: 0.212.

For TACO1 (UniProt Q9BSH4), the log2 fold change is inactive: 0.05.

Consider STRN3 (UniProt Q13033), for which the log2 fold change was inactive: -0.117.

In the case of STXBP5 (UniProt Q5T5C0), the log2 fold change was inactive: -0.008.

With SUPT16H (UniProt Q9Y5B9), the log2 fold change was inactive: -0.011.

SYAP1 (UniProt Q96A49): the log2 fold change is inactive: -0.102.

TADA1 (UniProt Q96BN2): the log2 fold change is inactive: 0.081.

In the case of STRN4 isoform 3 (UniProt Q9NRL3), the log2 fold change was inactive: 0.068.

STMN1 (UniProt P16949): the log2 fold change is inactive: -0.088.

In the case of TAF4B (UniProt Q92750), the log2 fold change is inactive: -0.082.

For SYP (UniProt P08247), the log2 fold change is inactive: -0.094.

For SUGP1 (UniProt Q8IWZ8), the log2 fold change was inactive: -0.005.

In the case of TACC3 (UniProt Q9Y6A5), the log2 fold change is inactive: 0.

In the case of TAF12 (UniProt Q16514), the log2 fold change was inactive: -0.03.

TAB1 (UniProt Q15750): the log2 fold change is inactive: -0.001.

STK26 (UniProt Q9P289): the log2 fold change is inactive: -0.004.

Take STRIP1 (UniProt Q5VSL9): the log2 fold change was inactive: 0.027.

With SYNJ2 (UniProt O15056), the log2 fold change was inactive: 0.088.

Consider SUMF2 (UniProt Q8NBJ7), for which the log2 fold change is inactive: 0.022.

Turning to STX18 (UniProt Q9P2W9), the log2 fold change is inactive: 0.06.

STK3 isoform 2 (UniProt Q13188): the log2 fold change is inactive: 0.122.

Turning to STK39 (UniProt Q9UEW8), the log2 fold change was inactive: 0.057.

SVIP (UniProt Q8NHG7): the log2 fold change was inactive: 0.032.

For the target SYNCRIP (UniProt O60506), the log2 fold change was inactive: -0.02.

TAF2 (UniProt Q6P1X5): the log2 fold change was inactive: 0.036.

Turning to TADA3 (UniProt O75528), the log2 fold change is inactive: 0.087.

Take STRIP2 (UniProt Q9ULQ0): the log2 fold change was inactive: -0.03.

On to SUMO1 (UniProt P63165), for which the log2 fold change is inactive: -0.011.

Consider SUB1 (UniProt P53999), for which the log2 fold change was inactive: 0.016.

As for SYPL1 (UniProt Q16563), the log2 fold change was inactive: 0.163.

Consider TAF1B (UniProt Q53T94), for which the log2 fold change was inactive: 0.134.

Regarding SYNRG (UniProt Q9UMZ2), the log2 fold change was inactive: -0.044.

With STX5 (UniProt Q13190), the log2 fold change is inactive: 0.078.

Regarding STMN2 isoform 2 (UniProt Q93045), the log2 fold change was inactive: -0.139.

On to STXBP3 (UniProt O00186), for which the log2 fold change is inactive: -0.037.

STRAP isoform 2 (UniProt Q9Y3F4): the log2 fold change is inactive: -0.047.

As to SUCLA2 (UniProt Q9P2R7), the log2 fold change is inactive: 0.108.
